# Publication PMC7297996, “Alzheimer’s disease-related dysregulation of mRNA translation causes key pathological features with ageing” (Translational Psychiatry, 2020)
# By UniProt entry, the sequences of proteins in these tests, tags left out.
# UniProt Q5SQX6: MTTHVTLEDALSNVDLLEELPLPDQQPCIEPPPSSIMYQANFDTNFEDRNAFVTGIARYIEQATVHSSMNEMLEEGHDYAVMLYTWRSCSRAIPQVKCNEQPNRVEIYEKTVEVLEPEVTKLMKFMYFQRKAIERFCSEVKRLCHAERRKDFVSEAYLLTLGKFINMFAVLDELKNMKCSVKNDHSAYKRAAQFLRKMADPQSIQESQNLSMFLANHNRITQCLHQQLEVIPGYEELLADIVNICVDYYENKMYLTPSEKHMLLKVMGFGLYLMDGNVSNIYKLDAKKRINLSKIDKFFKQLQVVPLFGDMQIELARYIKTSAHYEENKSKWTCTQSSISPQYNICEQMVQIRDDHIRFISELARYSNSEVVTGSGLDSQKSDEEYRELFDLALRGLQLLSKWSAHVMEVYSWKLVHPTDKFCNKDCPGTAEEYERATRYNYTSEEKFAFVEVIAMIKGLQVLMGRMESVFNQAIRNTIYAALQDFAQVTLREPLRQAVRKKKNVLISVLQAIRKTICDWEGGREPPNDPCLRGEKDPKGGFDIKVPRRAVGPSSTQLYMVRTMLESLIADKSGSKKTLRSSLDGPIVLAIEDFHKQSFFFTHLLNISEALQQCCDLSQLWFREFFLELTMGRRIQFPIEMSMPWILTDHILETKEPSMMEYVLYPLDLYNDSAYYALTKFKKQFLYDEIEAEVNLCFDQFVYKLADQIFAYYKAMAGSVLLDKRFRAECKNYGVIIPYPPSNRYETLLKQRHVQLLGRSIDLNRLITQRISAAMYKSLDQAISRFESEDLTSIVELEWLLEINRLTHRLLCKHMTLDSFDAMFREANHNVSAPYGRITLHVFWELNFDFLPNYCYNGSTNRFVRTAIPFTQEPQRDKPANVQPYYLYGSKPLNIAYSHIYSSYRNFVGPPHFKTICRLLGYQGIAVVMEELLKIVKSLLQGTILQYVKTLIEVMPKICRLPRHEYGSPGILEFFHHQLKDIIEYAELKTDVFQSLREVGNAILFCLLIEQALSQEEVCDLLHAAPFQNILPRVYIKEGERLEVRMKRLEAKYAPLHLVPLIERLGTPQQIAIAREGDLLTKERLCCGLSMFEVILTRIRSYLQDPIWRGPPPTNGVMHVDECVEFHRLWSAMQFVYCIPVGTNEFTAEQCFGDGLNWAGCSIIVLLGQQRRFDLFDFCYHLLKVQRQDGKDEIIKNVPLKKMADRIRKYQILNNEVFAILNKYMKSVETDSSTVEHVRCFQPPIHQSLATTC
# UniProt P63073: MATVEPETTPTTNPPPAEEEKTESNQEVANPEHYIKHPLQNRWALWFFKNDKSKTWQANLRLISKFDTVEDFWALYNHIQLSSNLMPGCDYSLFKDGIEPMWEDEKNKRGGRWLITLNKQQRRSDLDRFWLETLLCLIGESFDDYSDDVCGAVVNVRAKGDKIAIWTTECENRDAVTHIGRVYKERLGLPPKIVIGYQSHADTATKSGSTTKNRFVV
# These are yes or no findings as the source states them, for the method shown. Binding seen in cells or lysates may run through a third protein. Some results given as binding are weak or reduced against the parent protein; the word gives no strength.
# Experiments:
# [1] = target: cytoplasmic FMRP-interacting protein 2 (CYFIP2), mouse (mouse (endogenous in hippocampus)) (UniProt Q5SQX6); assay: co-IP; crude synaptosomal fraction of mouse hippocampus; anti-CYFIP2 antibody on Protein A Dynabeads, overnight at 4 °C; immunoblot
# [2] = target: cytoplasmic FMRP-interacting protein 2 (CYFIP2), mouse (mouse (endogenous in hippocampus)) (UniProt Q5SQX6); assay: co-IP; total mouse hippocampus homogenate in IP buffer (50 mM Tris pH 7.4, 150 mM NaCl, 1% Triton X-100); anti-CYFIP2 antibody on Protein A Dynabeads, overnight at 4 °C; immunoblot
substance,measurement,setting,value
"eukaryotic initiation factor 4E (eIF4E), mouse (from UniProt P63073 1-217)",binding,[1],binds
same,binding,[2],binds
